Values quoted from earlier work in patent US6864246B2, “Anilide and cyclodextrin complexes, their preparation and their use as medicine in particular for treating dyslipidemiae” (Pierre Fabre Medicament, priority 2001, dated 2005).
Some results were stated once for a whole list of compounds, not compound by compound.

Conditions: depends on degree of substitution; cited from earlier work

sulfobutyl ether β-cyclodextrin
Solubility (water) of cyclodextrin derivatives: greater than 50 g % ml

Hydroxypropyl-β-cyclodextrin
Solubility (water) of cyclodextrin derivatives: greater than 50 g % ml
